Consider 60 molecules from PubChem BioAssay AID2685 (National Center for Advancing Translational Sciences (NCATS), 2010).

Molecules are shown by their SMILES. This is one part of the list. Shown are side measurements of this screen, not its main read-out; they come without a call. The list favours compounds with an active or inconclusive main result. Potencies come from curve fits of mixed quality, noted in brackets.

As a reminder, the AC50 is the concentration giving half of the maximal activity seen. A lower AC50 goes with greater potency.

The experiment in a line: qHTS Assay for Lipid Storage Modulators in Drosophila S3 Cells.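 On cell number change: cells counted by Cell Tracker Red CMTPX staining in the red channel.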 Particulars: BODIPY lipid droplet fluorescence, 18-24 h; for cell number change: measured here: cell count max response, cells fed with added oleic acid. The method, boiled down: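 Drosophila S3 cells got compounds at several concentrations plus oleic acid (400 uM solution). Laser-scanning cytometry with 488 nm excitation read lipid droplets at 500-530 nm and cells at 575-640 nm. Percent activity was relative to 20 uM Triacsin C.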
(In general: qHTS replaces the single test concentration by a dilution series.)

Setting [1] is: measured here: cell number channel AC50, cells fed with added oleic acid.
The mark [2] stands for this setting: measured here: lipid fluorescence (Fed channel) AC50, cells fed with added oleic acid.

With `COc1cccc(-n2c(N)cc(=O)nc2SCC(=O)N2CCN(c3ccccc3)CC2)c1`, the cell number change was 55.1%. For the same molecule, the AC50 under setting [1] is 25.9 µM [rising, partial curve, poor fit].

With `CCCOc1cccc(C(=O)Nc2ccc(Br)cc2F)c1`, the cell number change is -45%. Besides, under setting [1], the AC50 was 29.1 µM [falling, single point].

`Cc1cc2nc3ccc(=[N+](C)C)cc-3sc2cc1N`: the cell number change was -29.1%. The AC50 under setting [2] was 5.8 µM [falling, partial curve].

With `CCCCCCc1ccc(N2C[C@H](CCCCC)[C@@H](CC(=O)NCc3ccc(OC)cc3)C2=O)cc1`, the cell number change came to 22.5%.

With `Cc1cccnc1NC(=O)c1cc2c(=O)oc3ccccc3c2s1`, the cell number change was 7.56%. The AC50 under setting [2] is 1.64 µM [rising, full curve].

With `O=C(NCCc1ccccc1)C(=O)NN=C1CCCC1`, the AC50 under setting [2] was 20.6 µM [falling, single point].

As to `CCOc1c(Br)cc(C(=O)NCCCn2ccnc2)cc1OC`, the cell number change is 28%. Further, the AC50 under setting [2] was 6.51 µM [rising, partial curve].

Consider `COc1ccc(CCNC(=O)CN2C(=O)CSc3ccc(S(=O)(=O)N4CCOCC4)cc32)cc1OC`, for which the cell number change was -16.5%. Further, the AC50 under setting [1] is 1.46 µM [rising, partial curve, poor fit]. Also, under setting [2], the AC50 was 6.51 µM [rising, partial curve, poor fit].

`N#Cc1c(N)nc2c3c(sc(=N)c2c1N)NC(=O)CC3c1ccccc1` (configuration not stated): the cell number change is -89.3%. For the same molecule, the AC50 under setting [1] was 29.1 µM [falling, partial curve, poor fit].

In the case of `N#Cc1cc(C#N)c(SCC(=O)NCC2CCCO2)nc1N` (configuration not stated), the cell number change is -18.1%. For the same molecule, under setting [2], the AC50 was 6.51 µM [rising, single point].

`O=C(NCC1CCCO1)C1CCCN(S(=O)(=O)c2ccc(Br)cc2)C1` (configuration not stated): the cell number change worked out at 13.5%. For the same molecule, the AC50 under setting [2] is 6.51 µM [falling, single point].

On to `O=C(N1CCOCC1)N1CCN(c2ccc(F)cc2)CC1`, for which the cell number change is -65.7%. Moreover, the AC50 under setting [1] was 1.3 µM [falling, full curve]. The AC50 under setting [2] is 0.146 µM [falling, full curve, poor fit].

For `O=C(O)/C=C\c1ccccc1Oc1cccc(Cl)c1`, the cell number change turned out to be 52.8%.

Turning to `CC1=CC(C)(C)n2c(O)c(N=N)c3cc(C)cc1c32`, the cell number change was determined as 18.8%. Besides, the AC50 under setting [1] was 6.51 µM [rising, single point]. For the same molecule, under setting [2], the AC50 was 6.51 µM [rising, partial curve].

With `O=C(Cc1ccccc1Cl)Nc1cccnc1`, the cell number change was -15.7%.

`COc1cc2c(cc1OC)C(C(=O)NCc1ccco1)C(c1cccs1)N(C)C2=O` (configuration not stated): the cell number change was 21%.

In the case of `CCC(=O)NC1(C(F)(F)F)C(=O)Nc2c1c(=O)[nH]c(=O)n2Cc1ccco1` (configuration not stated), the cell number change amounted to 66.1%. The AC50 under setting [1] is 5.17 µM [rising, single point]. The AC50 under setting [2] was 0.0517 µM [rising, full curve, poor fit].

Consider `O=S(=O)(c1ccc(F)cc1)N1CCN(c2nc(-c3cccnc3)nc3ccccc23)CC1`, for which the cell number change worked out at 3.92%. The half-maximal activity concentration (AC50) under setting [1] is 0.00411 µM [rising, full curve, poor fit]. The AC50 under setting [2] was 0.366 µM [rising, partial curve, poor fit].

With `O=C(CN=C1NS(=O)(=O)c2ccccc21)OCC(=O)c1cc(F)ccc1F`, the cell number change was found to be 7.22%.

Regarding `O=C(c1ccc(Cl)cc1)N1CCCC(C(=O)N2CCc3ccccc3C2)C1` (configuration not stated), under setting [1], the concentration at half-maximal activity (AC50) is 0.146 µM [rising, partial curve, poor fit].

Take `O=C(NCC1CCCO1)c1ccccc1OCc1ccc(F)cc1` (configuration not stated): the cell number change was -50%. Moreover, the AC50 under setting [1] is 6.51 µM [falling, partial curve].

`Cc1ccc(Nc2nc3nonc3[nH]c2=O)cc1Cl`: the cell number change was -44.6%. Moreover, under setting [1], the AC50 is 18.4 µM [falling, partial curve, poor fit]. For the same molecule, the AC50 under setting [2] is 8.2 µM [falling, partial curve].

Turning to `COc1ccc(CC(=O)NNC(=O)c2c(-c3ccccc3Cl)noc2C)cc1OC`, the cell number change turned out to be 5.98%. Moreover, under setting [1], the AC50 is 0.82 µM [falling, full curve, poor fit]. Further, under setting [2], the concentration at half-maximal activity (AC50) is 0.731 µM [falling, full curve].

As for `COc1ccc(N2CCN(S(=O)(=O)CC34CCC(CC3=O)C4(C)C)CC2)cc1` (configuration not stated), the cell number change was -34.9%. Besides, the AC50 under setting [1] was 20.6 µM [falling, single point].

For the molecule `N#Cc1c(N)c(C(=O)c2ccccc2)n2c1CCC2`, the cell number change was -9.4%. The AC50 under setting [1] was 6.51 µM [falling, single point].

Consider `Cc1cc(N2CCN(S(=O)(=O)c3ccc(Cl)c(Cl)c3)CC2)c2ccccc2n1`, for which the cell number change is 41.1%. Besides, the AC50 under setting [1] was 16.4 µM [rising, single point]. In addition, the AC50 under setting [2] was 0.00731 µM [falling, full curve, poor fit].

In the case of `Cc1cc(C)c(S(=O)(=O)N2CCCC(C(=O)NCCC3=CCCCC3)C2)c(C)c1` (configuration not stated), the cell number change was -24.6%. Also, the AC50 under setting [2] was 0.366 µM [falling, full curve].

Turning to `Cc1ccccc1CN(c1ccc(C(=O)NCCC2=CCCCC2)cc1)S(C)(=O)=O`, the cell number change was 2.26%. Also, the AC50 under setting [2] is 29.1 µM [falling, single point].

With `O=C(CCc1nnc2ccc(NCc3ccccc3)nn12)NC1CCCCC1`, the cell number change is -28.3%. Further, the AC50 under setting [1] was 0.058 µM [falling, full curve, poor fit]. The AC50 under setting [2] was 5.17 µM [rising, full curve].

As to `COc1c(Br)cc(Br)cc1/C=N/NC(=O)c1cccnc1`, the cell number change is 15.4%. In addition, under setting [2], the AC50 is 29.1 µM [falling, single point].

On to `O=C(Nc1nc(-c2ccccc2)cs1)Nc1ccc(F)cc1F`, for which the cell number change is -23.8%. Moreover, the AC50 under setting [2] is 25.9 µM [falling, single point].

On to `COc1ccc(NCc2nnc(SCC(=O)Nc3cc(C)cc(C)c3)o2)cc1`, for which the cell number change was -6.41%.

With `S=C(NC1CCCC1)N1CCOCC1`, the cell number change is -22.7%. Further, the AC50 under setting [1] is 0.0651 µM [falling, full curve, poor fit].

With `CC(=O)Nc1ccc(NS(=O)(=O)C(F)(F)F)cc1`, the cell number change is 2.63%.

For `Cc1ccc(C(=O)NCCc2nc3ccccc3[nH]2)cc1[N+](=O)[O-]`, the cell number change is -31.1%. Besides, the AC50 under setting [1] was 2.06 µM [falling, partial curve]. In addition, under setting [2], the AC50 is 14.6 µM [falling, partial curve].

As to `O=C(NC1CCCC1)C(c1ccccn1)N(C(=O)c1csnn1)c1ccccc1Cl` (configuration not stated), the cell number change was -4.2%. In addition, under setting [2], the AC50 is 11.6 µM [rising, partial curve, poor fit].

As for `COc1ccc(CNc2ncc(-c3ccc(F)cc3)n2C)cc1OC`, the cell number change was found to be 2.64%.

For the molecule `Clc1cccc(OCCN2CCN(CCOc3cccc(Cl)c3)CC2)c1`, the cell number change was -52.4%. In addition, the AC50 under setting [1] was 18.4 µM [falling, partial curve]. For the same molecule, under setting [2], the AC50 is 29.1 µM [falling, partial curve, poor fit].

As to `O=C(c1ccccc1)c1ccc(CN2C(=O)c3ccccc3C2=O)o1`, the cell number change stood at 1.79%.

For the molecule `Cc1nc(Cl)sc1C(=O)Nc1ccc(Cl)cc1`, the cell number change is -21.3%. For the same molecule, under setting [2], the AC50 was 18.4 µM [rising, single point].

Consider `Cc1nn(C)c(Cl)c1C(=O)NCC(=O)Nc1ccc(C(C)C)cc1`, for which the cell number change was determined as 24.1%.

`CCOC(=O)c1c(C)nsc1NC(=O)c1ccco1`: the cell number change was -24.7%.

For the molecule `O=C(CN1C(=O)c2cccnc2Oc2ccc(Cl)cc21)NC1CCCCC1`, the cell number change came to 13%. Also, the AC50 under setting [2] is 6.51 µM [rising, full curve].

`Cc1cc(=O)oc2cc(OCC(=O)Nc3cccc(S(=O)(=O)N(C)C)c3)ccc12`: the AC50 under setting [2] was 29.1 µM [rising, single point].

As for `O=C(Nc1ccccc1)c1n[nH]c(Cn2cncn2)n1`, the cell number change stood at 0.862%. The AC50 under setting [2] is 4.61 µM [falling, single point].

On to `CCOC(=O)c1oc2cccc(O)c2c1C`, for which the cell number change was -1.25%. In addition, the AC50 under setting [2] is 3.26 µM [falling, partial curve, poor fit].

For `Cc1ccc(-c2nnc(N3CCN(C(=O)c4cccs4)CC3)c3ccccc23)cc1`, the cell number change is 16.2%. In addition, under setting [1], the AC50 was 0.651 µM [rising, partial curve, poor fit]. The AC50 under setting [2] was 0.0366 µM [rising, full curve, poor fit].

Take `NS(=O)(=O)c1cccnc1Nc1ccc(Cl)c(Cl)c1`: the cell number change was -27.2%.

In the case of `O=C(NC1CCCCC1)C(c1ccc(O)cc1)N(C(=O)c1cnccn1)c1cccc(F)c1` (configuration not stated), the cell number change was -8.97%.

Regarding `CC1CCN(c2ccccc2NC(=O)c2ccc(N3CCOCC3)c([N+](=O)[O-])c2)CC1`, the cell number change was -56.8%. Besides, under setting [1], the AC50 was 29.1 µM [falling, single point].

With `Cc1ccn2cc(CCNC(=O)COc3ccccc3)nc2c1`, the cell number change was -1.05%.

In the case of `CCc1nnc(NC(=O)CCN2C(=O)CCC2=O)s1`, the cell number change came to 4.28%. Also, the AC50 under setting [2] was 2.59 µM [rising, partial curve].

For `CCOc1ccc(CCNC(=O)CCNS(=O)(=O)c2ccc(Br)cc2)cc1OCC`, the cell number change was determined as 4.69%. For the same molecule, the AC50 under setting [2] is 20.6 µM [falling, single point].

Turning to `CCOc1ccccc1C(=O)N/N=C/c1cccc2cccnc12`, the cell number change is -25.7%. In addition, under setting [2], the concentration at half-maximal activity (AC50) was 16.4 µM [falling, partial curve, poor fit].

Turning to `CN(CC(=O)Nc1ccc(F)cc1)C(=O)Cn1c(=O)oc2ccccc21`, the cell number change worked out at 32%. Further, the AC50 under setting [2] is 1.46 µM [rising, partial curve, poor fit].

For `Cc1cc(C)c(C(=O)CC2(O)C(=O)Nc3ccccc32)cc1C` (configuration not stated), the cell number change was 21.6%. In addition, under setting [2], the AC50 is 32.6 µM [rising, single point].

For `CCN1C(=O)[C@H]2[C@@H](c3ccc(SC4CCCCC4)cc3)N3CCCC[C@@]3(C(=O)OC)[C@H]2C1=O`, the cell number change stood at 4.75%. Besides, the AC50 under setting [2] is 0.58 µM [rising, single point].

Consider `CC(C)C(C(=O)C=[N+]=[N-])N1C(=O)c2ccccc2C1=O` (configuration not stated), for which the cell number change was -8.5%. Besides, the AC50 under setting [1] was 2.59 µM [falling, single point]. Moreover, under setting [2], the AC50 is 1.3 µM [rising, full curve, poor fit].

For `COc1ccc(/C(N)=N/OC(=O)CSc2ccccc2)cc1`, the cell number change is 90.6%. Besides, the AC50 under setting [1] is 8.2 µM [rising, partial curve].

Consider `CCOc1ccc(NS(=O)(=O)c2ccc(OC)c(NC(=O)c3ccc4c(c3)OCCO4)c2)cc1`, for which the cell number change was found to be 30.5%. Besides, under setting [1], the AC50 is 5.17 µM [rising, partial curve]. For the same molecule, the AC50 under setting [2] is 8.2 µM [rising, partial curve].
